The other results are listed elsewhere or left out. These are further read-outs of the screen, such as a control signal, another cell line or another target. No call is given for them. The list favours compounds with an active or inconclusive main result. Potencies come from curve fits of mixed quality, noted in brackets.
experiment: qHTS Assay for Identifying the Cell-Membrane Permeable IMPase Inhibitors; conditions: CHO-M1 cells, IP1 accumulation, HTRF TR-FRET ratio; measured here: donor channel 620 nm AC50

Structure (SMILES)	AC50
O=C(CSc1nc2c(cnn2-c2ccc(F)cc2)c(=O)[nH]1)N1CCCCCC1	224 nM [falling, full curve, poor fit]
CSc1ncc(Cl)c(C(=O)Nc2ccc(S(=O)(=O)N3CCOCC3)cc2)n1	2000 nM [falling, single point]
C/C(Cl)=C/Cn1c(SC(C)C)nc2c1c(=O)[nH]c(=O)n2C	50.1 nM [falling, full curve, poor fit]
O=C(CCNS(=O)(=O)c1ccc(Br)cc1)NCc1ccc2c(c1)OCO2	2510 nM [rising, full curve]
CC(C)(C)c1csc(NC(=O)c2ccc(Cl)s2)n1	5010 nM [falling, full curve]
CCCCNS(=O)(=O)c1ccc(NC(=O)c2c(-c3ccccc3)noc2C)cc1	3550 nM [falling, full curve, poor fit]
COc1ccc(Cl)cc1NC(=O)CSc1nc(-c2cccs2)cc(C(F)(F)F)n1	31600 nM [rising, single point]
O=C(Nc1ccc2oc(-c3cccnc3)nc2c1)c1ccccc1F	35500 nM [rising, single point]
COc1ccc(CCNC(=O)c2ccc(NS(=O)(=O)c3c(C)noc3C)cc2)cc1OC	5.01 nM [rising, full curve]
Cc1ccc(-c2c(C#N)c(N)n(-c3ccc(C)cc3)c(=O)c2C#N)cc1	5010 nM [falling, partial curve]
Cc1ccc(S(=O)(=O)N(CC(O)Cn2c3ccccc3c3ccccc32)c2cccc(C(=O)N(C)C)c2)cc1 (stereo not given)	7080 nM [falling, full curve, poor fit]
CCCc1cc(=O)[nH]c(SC(CC)C(=O)Nc2ccccc2C#N)n1 (stereo not given)	2510 nM [rising, single point]
COc1cccc(NC(=O)CN2CCN(c3ccc(F)cc3)CC2)c1	501 nM [rising, full curve, poor fit]
CCc1c(C(=O)O)[nH]c2ccc(Br)cc12	10000 nM [rising, partial curve]
O=C(c1cccc(S(=O)(=O)N2CCOCC2)c1)N1CCCCCC1	31600 nM [rising, partial curve, poor fit]
Cn1c(SC2C(=O)CC(C)(C)CC2=O)nnc1-c1ccco1	31600 nM [rising, single point]
COc1cccc(-c2cc(C(F)(F)F)n3nc(N)nc3n2)c1	10 nM [falling, full curve]
Cc1cccc(OC(C)c2ccnc3nc(/N=C/N(C)C)nn23)c1 (stereo not given)	15.8 nM [rising, full curve, poor fit]
CCOC(=O)CSc1nc(-c2ccc(OC)cc2)cc(C(F)(F)F)c1C#N	22400 nM [rising, single point]
Cc1nc2ccccc2nc1SCC(=O)c1ccccc1	20000 nM [rising, partial curve]
CCOc1ccc(Br)cc1S(=O)(=O)Nc1ccc(C(=O)OC(C)C(=O)N(C)c2ccccc2)cc1 (stereo not given)	5.01 nM [falling, full curve, poor fit]
CC1(C)CC(=O)N(CC(=O)O)c2ccccc2S1	10 nM [rising, full curve, poor fit]

Structure (SMILES)	AC50
Cc1ccc(-n2c(=S)[nH]c3c(oc4ccccc43)c2=O)cc1C	12600 nM [rising, partial curve]
O=c1c2cccc3c2c(nn1-c1ccccc1)-c1ccccc1-3	15800 nM [rising, single point]
CC(=C/c1ccccc1)/C=C1/SC(N2CCOCC2)=NC1=O	25100 nM [falling, single point]
O=C(O)c1cccc(-n2cnnn2)c1	7940 nM [falling, full curve, poor fit]
Cc1ccc2c(c1)c(=O)c1ccccc1n2CCCC(=O)Nc1cc(Cl)ccc1C	5620 nM [rising, single point]
Cc1nnc(NC(=O)c2c(F)cccc2F)s1	794 nM [falling, full curve, poor fit]
Cn1c(=O)[nH]c(=O)c2c1nc(Sc1ncccn1)n2CCCc1ccccc1	1000 nM [falling, partial curve, poor fit]
CCOc1cc2[nH]c(=O)n(CCc3ccc(OC)c(OC)c3)c(=O)c2cc1OCC	794 nM [rising, full curve, poor fit]
CN1CCN(c2c(F)cc3c(=O)c(C(=O)O)cn4c3c2SCC4)CC1	15800 nM [rising, partial curve]
CCN1CCCC1CNC(=O)C1CCN(Cc2nc(-c3cccc(Br)c3)oc2C)CC1 (stereo not given)	1260 nM [rising, full curve, poor fit]
O=C(CCCn1c(SCC(=O)NC2CCCCC2)nc2ccccc2c1=O)NCC1CCCO1 (stereo not given)	31.6 nM [rising, full curve, poor fit]
COCCn1c(N)c(C(=O)OCc2ccccc2)c2nc3ccccc3nc21	7940 nM [rising, partial curve, poor fit]
Nc1ncnc2oc(-c3ccco3)c(-c3ccco3)c12	2000 nM [rising, single point]
COc1ccc2[nH]c(C)c(C(=O)CN3CCN(C/C=C/c4ccccc4)CC3)c2c1	631 nM [rising, full curve, poor fit]
Cc1ccc(N2CC(C(=O)NCCC(C)C)CC2=O)cc1 (stereo not given)	100 nM [falling, full curve, poor fit]
O=C(C1CCCCN1S(=O)(=O)c1ccccc1)N1CCN(C(c2ccccc2)c2ccccc2)CC1 (stereo not given)	10 nM [falling, full curve, poor fit]
COC(=O)c1ccccc1NC(=O)C(C)Oc1ccccc1 (stereo not given)	1000 nM [falling, full curve]
CC(=O)c1cccc(N(C(=O)c2ccccn2)C(C(=O)NC2CCCCC2)c2cccs2)c1 (stereo not given)	251 nM [falling, full curve, poor fit]
Cc1cc(N2CCN(Cc3ccc4c(c3)OCO4)CC2)n2ncnc2n1	200 nM [falling, full curve]
COC(=O)c1c(CSc2cccc(C)c2)noc1C(=O)NCc1ccco1	5010 nM [falling, full curve, poor fit]
Cc1ccc(-c2nc3ncccn3c2Nc2ccc3c(c2)OCCO3)o1	2000 nM [falling, full curve]
COc1ccc(-n2c(SCC(N)=O)nnc2-c2cccnc2)cc1	1000 nM [falling, full curve]

12 successive records out of the list so far, quoted:
Structure (SMILES)	AC50
Cc1cccc(OC(C)c2ccnc3nc(/N=C/N(C)C)nn23)c1 (stereo not given)	15.8 nM [rising, full curve, poor fit]
CCOC(=O)CSc1nc(-c2ccc(OC)cc2)cc(C(F)(F)F)c1C#N	22400 nM [rising, single point]
Cc1nc2ccccc2nc1SCC(=O)c1ccccc1	20000 nM [rising, partial curve]
CCOc1ccc(Br)cc1S(=O)(=O)Nc1ccc(C(=O)OC(C)C(=O)N(C)c2ccccc2)cc1 (stereo not given)	5.01 nM [falling, full curve, poor fit]
CC1(C)CC(=O)N(CC(=O)O)c2ccccc2S1	10 nM [rising, full curve, poor fit]
Cc1ccc(-n2c(=S)[nH]c3c(oc4ccccc43)c2=O)cc1C	12600 nM [rising, partial curve]
O=c1c2cccc3c2c(nn1-c1ccccc1)-c1ccccc1-3	15800 nM [rising, single point]
CC(=C/c1ccccc1)/C=C1/SC(N2CCOCC2)=NC1=O	25100 nM [falling, single point]
O=C(O)c1cccc(-n2cnnn2)c1	7940 nM [falling, full curve, poor fit]
Cc1ccc2c(c1)c(=O)c1ccccc1n2CCCC(=O)Nc1cc(Cl)ccc1C	5620 nM [rising, single point]
Cc1nnc(NC(=O)c2c(F)cccc2F)s1	794 nM [falling, full curve, poor fit]
Cn1c(=O)[nH]c(=O)c2c1nc(Sc1ncccn1)n2CCCc1ccccc1	1000 nM [falling, partial curve, poor fit]

(next part)

Structure (SMILES)	AC50
O=S(=O)(c1cccs1)N1CN(Cc2ccccc2)c2nc3ccccc3nc21	398 nM [rising, full curve, poor fit]
CCn1c(=O)cc(SCC(=O)NCc2cccnc2)c2ccccc21	7940 nM [rising, partial curve, poor fit]
CN(C)c1ccc(-c2nc3n(n2)C(c2cccnc2)C2=C(CC(C)(C)CC2=O)N3)cc1 (stereo not given)	10000 nM [falling, partial curve, poor fit]
CC(=O)C1=C(O)C(=O)N(c2ccc(C)cc2)C1c1ccccn1 (stereo not given)	12600 nM [rising, partial curve]
Cc1cccc(-c2nc(S(=O)(=O)c3ccc(Cl)cc3)c(N3CCCCCC3)o2)c1	794 nM [falling, full curve]
O=C(c1cnc2n(c1=O)CCS2)N1CCN(c2ccc([N+](=O)[O-])cc2)CC1	224 nM [falling, full curve, poor fit]
CON/C=C(\C=Nc1ccc(C(F)(F)F)cc1)c1ncc(C(F)(F)F)cc1Cl	5010 nM [rising, single point]
Cc1cc(=O)n2nc(N3CCC(C(=O)NCc4cccnc4)CC3)sc2n1	31600 nM [rising, single point]
C=CCN(CC=C)S(=O)(=O)c1ccc2nsnc2c1	3980 nM [falling, partial curve]
Cc1ccc(-n2nc(C)c3c2OC(N)=C(C#N)C3c2ccco2)cc1 (stereo not given)	31600 nM [falling, single point]
C=CCn1c(SCC(=O)Nc2sccc2C#N)nc2sc(C)c(C)c2c1=O	15800 nM [rising, single point]
CCOC(=O)/C(C#N)=C\c1c(C)cc(C)c(COC(C)=O)c1C	25100 nM [falling, single point]
COc1ccccc1NC(=S)NNC(=O)c1nn(C)cc1Cl	10 nM [falling, full curve, poor fit]
FC(F)(F)c1cccc(-c2cc3ccccc3nc2N2CCCC2)c1	5.01 nM [falling, full curve]
COC(=O)Cc1c(C)c2c(O)cc(C)cc2oc1=O	12600 nM [rising, partial curve]
CCOC(=O)c1nn(-c2cccc(C)c2)c2nc(-c3ccccc3)c(C#N)c(=O)n12	12600 nM [rising, single point]
COc1ccccc1NC(=O)CSc1ncn[nH]1	5.01 nM [falling, full curve, poor fit]
CCS(=O)(=O)C(=C(Nc1ccc(OC)cc1)Nc1ccc(OC)cc1)S(=O)(=O)CC	1260 nM [falling, full curve, poor fit]
Cc1ccc(C(=O)NNC(=S)Nc2cccc3ccccc23)s1	3160 nM [falling, single point]
Cc1ccc(NC(=O)CSCC(=O)N2CCOCC2)cc1	158 nM [falling, full curve]
O=C(O)c1cc(Nc2nc(N3CCOCC3)nc(N3CCOCC3)n2)ccc1Cl	251 nM [falling, single point]
